Laboratory results: paper PMC9618717

Chains of the proteins cited; added tags and fusions are not shown.
UniProt Q8LPJ4: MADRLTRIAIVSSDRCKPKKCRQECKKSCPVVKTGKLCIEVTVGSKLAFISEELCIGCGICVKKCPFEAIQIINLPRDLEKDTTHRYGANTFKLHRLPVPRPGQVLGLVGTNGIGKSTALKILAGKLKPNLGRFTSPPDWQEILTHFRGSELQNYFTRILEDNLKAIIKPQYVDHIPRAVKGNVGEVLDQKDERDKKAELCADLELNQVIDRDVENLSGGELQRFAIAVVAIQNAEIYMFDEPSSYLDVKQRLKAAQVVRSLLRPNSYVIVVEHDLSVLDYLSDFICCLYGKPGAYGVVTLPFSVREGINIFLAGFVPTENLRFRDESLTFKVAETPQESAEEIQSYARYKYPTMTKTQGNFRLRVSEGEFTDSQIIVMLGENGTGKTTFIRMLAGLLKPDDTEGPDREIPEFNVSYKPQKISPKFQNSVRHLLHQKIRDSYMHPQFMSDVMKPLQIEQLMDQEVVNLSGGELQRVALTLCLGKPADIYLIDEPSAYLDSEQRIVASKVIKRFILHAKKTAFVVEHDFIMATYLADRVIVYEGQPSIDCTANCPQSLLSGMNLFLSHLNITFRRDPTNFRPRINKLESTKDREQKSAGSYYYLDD
UniProt P34790: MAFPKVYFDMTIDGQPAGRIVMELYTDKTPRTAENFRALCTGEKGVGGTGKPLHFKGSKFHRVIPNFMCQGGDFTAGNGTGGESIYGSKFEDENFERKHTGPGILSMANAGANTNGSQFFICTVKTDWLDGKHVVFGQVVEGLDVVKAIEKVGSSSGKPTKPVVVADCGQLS
UniProt F4I893: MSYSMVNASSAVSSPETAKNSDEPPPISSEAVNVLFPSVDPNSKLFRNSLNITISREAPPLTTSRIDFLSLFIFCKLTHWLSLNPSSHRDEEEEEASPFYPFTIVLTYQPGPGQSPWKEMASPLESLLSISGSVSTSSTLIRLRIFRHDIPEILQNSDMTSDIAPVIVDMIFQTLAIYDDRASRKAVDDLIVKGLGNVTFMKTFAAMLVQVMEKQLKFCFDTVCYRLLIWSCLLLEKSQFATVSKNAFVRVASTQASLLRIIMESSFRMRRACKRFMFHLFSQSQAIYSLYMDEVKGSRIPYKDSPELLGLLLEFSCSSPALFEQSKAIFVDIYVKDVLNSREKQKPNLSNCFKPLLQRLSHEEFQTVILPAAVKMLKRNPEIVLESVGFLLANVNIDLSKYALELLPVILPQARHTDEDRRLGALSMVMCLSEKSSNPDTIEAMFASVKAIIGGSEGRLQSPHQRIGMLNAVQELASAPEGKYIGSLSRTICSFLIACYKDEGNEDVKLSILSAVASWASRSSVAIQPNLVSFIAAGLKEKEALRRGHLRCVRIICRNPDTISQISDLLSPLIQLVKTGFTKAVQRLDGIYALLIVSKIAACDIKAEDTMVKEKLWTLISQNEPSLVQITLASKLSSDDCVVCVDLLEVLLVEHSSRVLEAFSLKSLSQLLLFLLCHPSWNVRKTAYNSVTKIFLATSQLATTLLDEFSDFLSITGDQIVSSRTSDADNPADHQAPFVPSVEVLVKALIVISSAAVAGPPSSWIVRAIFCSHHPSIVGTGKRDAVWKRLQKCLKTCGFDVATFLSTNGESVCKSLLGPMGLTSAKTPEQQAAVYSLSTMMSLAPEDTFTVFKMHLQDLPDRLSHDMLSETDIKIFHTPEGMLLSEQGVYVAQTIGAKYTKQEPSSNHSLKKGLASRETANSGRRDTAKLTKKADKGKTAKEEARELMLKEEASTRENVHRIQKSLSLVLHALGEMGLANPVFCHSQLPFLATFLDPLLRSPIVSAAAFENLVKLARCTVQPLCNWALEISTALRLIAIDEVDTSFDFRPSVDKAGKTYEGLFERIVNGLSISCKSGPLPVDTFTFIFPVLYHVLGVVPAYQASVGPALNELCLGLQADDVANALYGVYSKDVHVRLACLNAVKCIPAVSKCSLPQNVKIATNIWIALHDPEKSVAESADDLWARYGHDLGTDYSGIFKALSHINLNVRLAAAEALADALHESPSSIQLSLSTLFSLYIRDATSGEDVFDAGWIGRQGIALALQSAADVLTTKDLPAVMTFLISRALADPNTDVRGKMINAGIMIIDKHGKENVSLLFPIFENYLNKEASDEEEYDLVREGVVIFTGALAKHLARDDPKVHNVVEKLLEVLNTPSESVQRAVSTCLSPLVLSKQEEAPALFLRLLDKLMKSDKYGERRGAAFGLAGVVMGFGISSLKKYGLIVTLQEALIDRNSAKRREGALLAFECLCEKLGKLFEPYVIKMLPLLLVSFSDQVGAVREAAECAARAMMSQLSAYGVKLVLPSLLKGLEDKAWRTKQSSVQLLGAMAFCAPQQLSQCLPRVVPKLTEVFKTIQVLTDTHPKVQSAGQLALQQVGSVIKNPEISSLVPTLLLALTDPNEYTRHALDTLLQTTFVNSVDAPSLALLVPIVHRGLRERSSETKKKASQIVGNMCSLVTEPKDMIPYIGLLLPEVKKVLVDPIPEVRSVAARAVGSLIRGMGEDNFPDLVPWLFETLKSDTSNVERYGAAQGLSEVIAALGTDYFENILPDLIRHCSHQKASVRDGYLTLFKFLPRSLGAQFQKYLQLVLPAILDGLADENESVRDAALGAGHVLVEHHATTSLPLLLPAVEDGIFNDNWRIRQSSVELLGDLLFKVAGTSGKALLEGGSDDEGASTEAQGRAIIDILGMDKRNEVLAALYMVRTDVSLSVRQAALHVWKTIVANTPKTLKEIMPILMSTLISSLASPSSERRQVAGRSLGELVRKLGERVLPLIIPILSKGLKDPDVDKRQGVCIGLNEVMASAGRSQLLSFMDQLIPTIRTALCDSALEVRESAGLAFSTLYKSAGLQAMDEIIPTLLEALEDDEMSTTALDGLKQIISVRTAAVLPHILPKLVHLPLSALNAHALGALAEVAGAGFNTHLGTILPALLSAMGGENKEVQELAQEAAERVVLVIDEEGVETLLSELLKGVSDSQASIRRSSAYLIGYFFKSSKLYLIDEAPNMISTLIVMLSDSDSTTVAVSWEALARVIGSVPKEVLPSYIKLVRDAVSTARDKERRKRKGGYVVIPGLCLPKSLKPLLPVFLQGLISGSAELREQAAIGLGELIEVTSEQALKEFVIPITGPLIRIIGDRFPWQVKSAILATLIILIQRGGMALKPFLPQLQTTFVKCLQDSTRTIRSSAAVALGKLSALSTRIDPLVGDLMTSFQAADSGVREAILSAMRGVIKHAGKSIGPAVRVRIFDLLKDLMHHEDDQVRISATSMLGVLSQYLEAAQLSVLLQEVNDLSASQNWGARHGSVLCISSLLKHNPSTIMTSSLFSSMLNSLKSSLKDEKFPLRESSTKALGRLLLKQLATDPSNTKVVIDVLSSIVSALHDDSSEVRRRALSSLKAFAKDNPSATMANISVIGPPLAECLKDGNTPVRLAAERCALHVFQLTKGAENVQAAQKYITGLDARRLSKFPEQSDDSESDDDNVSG
UniProt Q9FGI1: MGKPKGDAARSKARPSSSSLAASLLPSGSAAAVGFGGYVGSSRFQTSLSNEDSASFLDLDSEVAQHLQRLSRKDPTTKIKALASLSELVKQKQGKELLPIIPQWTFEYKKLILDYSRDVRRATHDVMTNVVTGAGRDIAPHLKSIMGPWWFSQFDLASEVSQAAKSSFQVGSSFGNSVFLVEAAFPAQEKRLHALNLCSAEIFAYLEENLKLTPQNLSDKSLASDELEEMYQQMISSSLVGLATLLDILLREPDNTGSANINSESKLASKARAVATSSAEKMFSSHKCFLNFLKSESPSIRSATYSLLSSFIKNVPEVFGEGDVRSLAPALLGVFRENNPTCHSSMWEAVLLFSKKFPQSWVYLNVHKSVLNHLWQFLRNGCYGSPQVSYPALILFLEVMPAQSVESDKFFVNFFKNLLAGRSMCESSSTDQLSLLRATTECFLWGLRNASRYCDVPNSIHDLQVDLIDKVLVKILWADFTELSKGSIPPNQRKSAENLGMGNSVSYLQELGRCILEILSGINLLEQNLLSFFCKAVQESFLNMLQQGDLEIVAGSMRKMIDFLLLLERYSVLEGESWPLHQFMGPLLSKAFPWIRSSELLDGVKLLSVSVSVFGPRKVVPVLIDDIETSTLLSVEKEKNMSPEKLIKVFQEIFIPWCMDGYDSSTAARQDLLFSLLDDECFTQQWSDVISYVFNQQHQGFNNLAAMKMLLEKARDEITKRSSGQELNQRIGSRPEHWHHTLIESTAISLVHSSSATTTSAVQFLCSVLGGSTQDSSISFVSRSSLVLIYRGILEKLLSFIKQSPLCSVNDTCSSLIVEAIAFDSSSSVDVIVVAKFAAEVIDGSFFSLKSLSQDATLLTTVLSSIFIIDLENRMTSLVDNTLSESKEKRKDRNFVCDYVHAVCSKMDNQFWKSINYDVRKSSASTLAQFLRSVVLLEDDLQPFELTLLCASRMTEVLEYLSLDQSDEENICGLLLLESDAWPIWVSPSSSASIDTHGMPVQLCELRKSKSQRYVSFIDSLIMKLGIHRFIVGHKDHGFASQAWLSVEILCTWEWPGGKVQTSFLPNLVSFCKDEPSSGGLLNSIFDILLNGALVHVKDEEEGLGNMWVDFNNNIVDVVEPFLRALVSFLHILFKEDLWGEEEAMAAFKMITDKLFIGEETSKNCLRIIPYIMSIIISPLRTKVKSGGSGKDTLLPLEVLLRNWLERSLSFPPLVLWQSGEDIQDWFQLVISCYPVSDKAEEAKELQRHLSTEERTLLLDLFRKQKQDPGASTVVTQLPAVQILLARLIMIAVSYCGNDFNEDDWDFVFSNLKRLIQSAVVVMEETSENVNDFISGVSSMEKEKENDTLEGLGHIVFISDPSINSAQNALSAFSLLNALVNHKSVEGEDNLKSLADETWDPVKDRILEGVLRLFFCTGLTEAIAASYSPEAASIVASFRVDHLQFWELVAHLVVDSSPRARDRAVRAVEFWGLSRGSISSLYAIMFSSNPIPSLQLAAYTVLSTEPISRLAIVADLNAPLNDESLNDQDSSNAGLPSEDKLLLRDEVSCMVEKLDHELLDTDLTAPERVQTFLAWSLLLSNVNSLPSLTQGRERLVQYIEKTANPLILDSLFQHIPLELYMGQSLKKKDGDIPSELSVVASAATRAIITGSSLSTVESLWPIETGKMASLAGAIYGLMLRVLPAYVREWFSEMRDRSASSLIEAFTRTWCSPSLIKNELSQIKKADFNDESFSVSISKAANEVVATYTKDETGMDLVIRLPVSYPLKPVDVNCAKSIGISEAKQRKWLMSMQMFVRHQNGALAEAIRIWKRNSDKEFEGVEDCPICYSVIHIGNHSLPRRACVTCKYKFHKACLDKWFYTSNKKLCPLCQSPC

B1: eIF3k (subunit of the eIF3 complex) (protein, UniProt Q9SZA3 1-226)
chain: MGVEIQSPQEQSSYTVEQLVALNPFNPEILPDLENYVNVTSQTYSLEVNLCLLRLYQFEPERMNTHIVARILVKALMAMPTPDFSLCLFLIPERVQMEEQFKSLIVLSHYLETGRFQQFWDEAAKNRHILEAVPGFEQAIQAYASHLLSLSYQKVPRSVLAEAVNMDGASLDKFIEQQVTNSGWIVEKEGGSIVLPQNEFNHPELKKNTGENVPLEHIARIFPILG
B2: eIF3a (subunit of the eIF3 complex) (protein, UniProt Q9LD55 1-987)
chain: MANFAKPENALKRADELINVGQKQDALQALHDLITSKRYRAWQKPLEKIMFKYLDLCVDLKRGRFAKDGLIQYRIVCQQVNVSSLEEVIKHFLHLATDKAEQARSQADALEEALDVDDLEADRKPEDLQLSIVSGEKGKDRSDRELVTPWFKFLWETYRTVLEILRNNSKLEALYAMTAHKAFQFCKQYKRTTEFRRLCEIIRNHLANLNKYRDQRDRPDLSAPESLQLYLDTRFDQLKVATELGLWQEAFRSVEDIYGLMCMVKKTPKSSLLMVYYSKLTEIFWISSSHLYHAYAWFKLFSLQKNFNKNLSQKDLQLIASSVVLAALSIPPFDRAQSASHMELENEKERNLRMANLIGFNLEPKFEGKDMLSRSALLSELVSKGVLSCASQEVKDLFHVLEHEFHPLDLGSKIQPLLEKISKSGGKLSSAPSLPEVQLSQYVPSLEKLATLRLLQQVSKIYQTIRIESLSQLVPFFQFSEVEKISVDAVKNNFVAMKVDHMKGVVIFGNLGIESDGLRDHLAVFAESLSKVRAMLYPVPSKASKLAGVIPNLADTVEKEHKRLLARKSIIEKRKEDQERQQLEMEREEEQKRLKLQKLTEEAEQKRLAAELAERRKQRILREIEEKELEEAQALLEETEKRMKKGKKKPLLDGEKVTKQSVKERALTEQLKERQEMEKKLQKLAKTMDYLERAKREEAAPLIEAAYQRRLVEEREFYEREQQREVELSKERHESDLKEKNRLSRMLGNKEIFQAQVISRRQAEFDRIRTEREERISKIIREKKQERDIKRKQIYYLKIEEERIRKLQEEEEARKQEEAERLKKVEAERKANLDKAFEKQRQREIELEEKSRREREELLRGTNAPPARLAEPTVTPVGTTAPAAAAAAAGAPAAPYVPKWKRQTTEVSGPSAPTSSETDRRSNRGPPPGDDHWGSNRGAAQNTDRWTSNRERSGPPAEGGDRWGSGPRGSDDRRSTFGSSRPRPTQR
B3: eIF3e (subunit of the eIF3 complex) (protein, UniProt Q9C5Z3 1-441)
chain: MEESKQNYDLTPLIAPNLDRHLVFPIFEFLQERQLYPDEQILKSKIQLLNQTNMVDYAMDIHKSLYHTEDAPQEMVERRTEVVARLKSLEEAAAPLVSFLLNPNAVQELRADKQYNLQMLKERYQIGPDQIEALYQYAKFQFECGNYSGAADYLYQYRTLCSNLERSLSALWGKLASEILMQNWDIALEELNRLKEIIDSKSFSSPLNQVQNRIWLMHWGLYIFFNHDNGRTQIIDLFNQDKYLNAIQTSAPHLLRYLATAFIVNKRRRPQLKEFIKVIQQEHYSYKDPIIEFLACVFVNYDFDGAQKKMKECEEVIVNDPFLGKRVEDGNFSTVPLRDEFLENARLFVFETYCKIHQRIDMGVLAEKLNLNYEEAERWIVNLIRTSKLDAKIDSESGTVIMEPTQPNVHEQLINHTKGLSGRTYKLVNQLLEHTQAQATR
B4: At2g20830 protein (folic acid binding/transferase, similar to human and S. cerevisiae Lto1) (protein, UniProt Q9SKT4 1-297)
chain: MLREMLGCCKVYISEARNKTALEAIERALKPFPPAAIVNKFEDAAYGRVGYTVVSSLANGSSSSLKNAVFAMVKTALDTINLELHCGSHPRLGVVDHICFHPLSQTSIEQVSSVANSLAMDIGSILRVPTYLYGAAEKEQCTLDSIRRKLGYFKANREGHEWAGGFDLEMVPLKPDAGPQEVSKAKGVVAVGACGWVSNYNVPVMSNDLKAVRRIARKTSERGGGLASVQTMALVHGEGVIEVACNLLNPSQVGGDEVQGLIERLGREEGLLVGKGYYTDYTPDQIVERYMDLLNNS
B5: EVOLUTIONARILY CONSERVED C-TERMINAL REGION 2 (protein, UniProt Q9LJE5 1-667)
chain: MATVAPPADQATDLLQKLSLDSPAKASEIPEPNKKTAVYQYGGVDVHGQVPSYDRSLTPMLPSDAADPSVCYVPNPYNPYQYYNVYGSGQEWTDYPAYTNPEGVDMNSGIYGENGTVVYPQGYGYAAYPYSPATSPAPQLGGEGQLYGAQQYQYPNYFPNSGPYASSVATPTQPDLSANKPAGVKTLPADSNNVASAAGITKGSNGSAPVKPTNQATLNTSSNLYGMGAPGGGLAAGYQDPRYAYEGYYAPVPWHDGSKYSDVQRPVSGSGVASSYSKSSTVPSSRNQNYRSNSHYTSVHQPSSVTGYGTAQGYYNRMYQNKLYGQYGSTGRSALGYGSSGYDSRTNGRGWAATDNKYRSWGRGNSYYYGNENNVDGLNELNRGPRAKGTKNQKGNLDDSLEVKEQTGESNVTEVGEADNTCVVPDREQYNKEDFPVDYANAMFFIIKSYSEDDVHKSIKYNVWASTPNGNKKLAAAYQEAQQKAGGCPIFLFFSVNASGQFVGLAEMTGPVDFNTNVEYWQQDKWTGSFPLKWHIVKDVPNSLLKHITLENNENKPVTNSRDTQEVKLEQGLKIVKIFKEHSSKTCILDDFSFYEVRQKTILEKKAKQTQKQVSEEKVTDEKKESATAESASKESPAAVQTSSDVKVAENGSVAKPVTGDVVANGC

What follows are molecules tested against ABCE2:YFP fusion protein (Arabidopsis ATP-Binding Cassette E protein ABCE2 fused to YFP) (Arabidopsis thaliana) (UniProt Q8LPJ4) (assay: affinity purification with mass spectrometry; co-immunoprecipitation of ABCE2:YFP with the µMACS GFP Isolation Kit from extracts of whole api7-1 35Spro:ABCE2:YFP seedlings (10 das) crosslinked with 1% formaldehyde; lysis buffer 50 mM Tris-HCl pH 7.5, 0.1% IGEPAL CA-630, 2 mM PMSF, 150 mM NaCl; three biological replicates; LC-ESI-MS/MS; hits filtered by predicted cytoplasmic localisation and against a subtract list from three unrelated GFP co-immunoprecipitations).

Row | binding | Molecule
1 | binds | ROTAMASE CYP 1 (from UniProt P34790 1-172)
2 | binds | ILITYHIA (from UniProt F4I893 1-2696)
3 | binds | protein encoded by At5g58410, annotated as E3 ubiquitin-protein ligase listerin (from UniProt Q9FGI1 1-1873)
4 | binds | RPL3B (from UniProt P22738 1-390)

Biological target: ABCE2:YFP fusion protein (Arabidopsis ATP-Binding Cassette E protein ABCE2 fused to YFP) (Arabidopsis thaliana) (UniProt Q8LPJ4)
Assay: as above
Remark: another data set of the same source

Row | binding | Molecule
5 | binds | B1
6 | binds | B2
7 | binds | B3
8 | binds | B4
9 | binds | B5

No constants are given. Whether binding was seen depends on the method and setting. Binding seen in cells or lysates may run through a third protein. A yes stands for co-enrichment or nearness to the bait. Other partners may have been found.
